Laboratory results from the supplement of paper PMC7661543.
Differences between knockout arms are mostly noise.

What was measured:
HCC-38 = assay: relative cell number vs DMSO control (72 h) (% of DMSO); higher = less growth inhibition (more cells)
Experimental: (§1)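 QMAP-Seq: a pool of 5 breast cancer cell lines (ZR-75-1, SKBR3, HCC-38, MDA-MB-231, BT-20), each carrying 12 doxycycline-inducible Cas9 sgRNA perturbations (11 knockouts plus non-targeting sgNT), was treated with compounds for 72 h at four 10-fold doses (10 nM-10 uM or 1 nM-1 uM range). Barcodes were amplified and sequenced, and cell number was interpolated from 293T spike-in standard curves. The result is expressed as % of the median of DMSO wells. Two biological replicates.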

MDA-MB-231 = assay: as above
Experimental: as §1

O=c1cc(-c2cccc3c2Sc2ccccc2S3)oc(N2CCOCC2)c1
relative cell number
Details	HCC-38	MDA-MB-231
sgRNA knockout: sgATF3, 10 nM	95.2	130
sgRNA knockout: sgATF3, 100 nM	80.6	92.2
sgRNA knockout: sgATF3, 1000 nM	95	85.5
sgRNA knockout: sgATF3, 10000 nM	88.5	78.9
sgRNA knockout: sgATF4, 10 nM	97	92.6
sgRNA knockout: sgATF4, 100 nM	67.2	106
sgRNA knockout: sgATF4, 1000 nM	84	89.7
sgRNA knockout: sgATF4, 10000 nM	87.65	79
sgRNA knockout: sgATF6, 10 nM	104	93.4
sgRNA knockout: sgATF6, 100 nM	94.6	89.8
sgRNA knockout: sgATF6, 1000 nM	94.9	93
sgRNA knockout: sgATF6, 10000 nM	79.3	61.2
sgRNA knockout: sgATG7, 10 nM	95.5	110
sgRNA knockout: sgATG7, 100 nM	75.2	87.28
sgRNA knockout: sgATG7, 1000 nM	85.9	90.9
sgRNA knockout: sgATG7, 10000 nM	78.3	76.9
sgRNA knockout: sgERN1, 10 nM	99.8	114
sgRNA knockout: sgERN1, 100 nM	82.6	99.6
sgRNA knockout: sgERN1, 1000 nM	87.5	97
sgRNA knockout: sgERN1, 10000 nM	79.2	83.2
sgRNA knockout: sgHSF1, 10 nM	106	103
sgRNA knockout: sgHSF1, 100 nM	86.49	93.7
sgRNA knockout: sgHSF1, 1000 nM	88.5	89.465
sgRNA knockout: sgHSF1, 10000 nM	77.4	61.7
sgRNA knockout: sgHSF2, 10 nM	102	108
sgRNA knockout: sgHSF2, 100 nM	90.9	91.1
sgRNA knockout: sgHSF2, 1000 nM	91.2	99.7
sgRNA knockout: sgHSF2, 10000 nM	78.1	79.6
sgRNA knockout: sgKEAP1, 10 nM	101	99.6
sgRNA knockout: sgKEAP1, 100 nM	98.3	91.4
sgRNA knockout: sgKEAP1, 1000 nM	102	107
sgRNA knockout: sgKEAP1, 10000 nM	70.8	65.9
sgRNA knockout: sgNFE2L2, 10 nM	91.7	83.9
sgRNA knockout: sgNFE2L2, 100 nM	69	89.3
sgRNA knockout: sgNFE2L2, 1000 nM	84.1	99
sgRNA knockout: sgNFE2L2, 10000 nM	85	80
sgRNA knockout: sgSLC35F2, 10 nM	93.1	85.8
sgRNA knockout: sgSLC35F2, 100 nM	83	107
sgRNA knockout: sgSLC35F2, 1000 nM	91.9	73.6
sgRNA knockout: sgSLC35F2, 10000 nM	85.2	78.4
sgRNA knockout: sgXBP1, 10 nM	99.158	104
sgRNA knockout: sgXBP1, 100 nM	75.9	87.41
sgRNA knockout: sgXBP1, 1000 nM	85.1	100
sgRNA knockout: sgXBP1, 10000 nM	89.1	72.7
